This assay deals with T1, N-Myc Downregulated like 1 (NDL1) (Arabidopsis) (UniProt Q9FJT7).
T1 sequence: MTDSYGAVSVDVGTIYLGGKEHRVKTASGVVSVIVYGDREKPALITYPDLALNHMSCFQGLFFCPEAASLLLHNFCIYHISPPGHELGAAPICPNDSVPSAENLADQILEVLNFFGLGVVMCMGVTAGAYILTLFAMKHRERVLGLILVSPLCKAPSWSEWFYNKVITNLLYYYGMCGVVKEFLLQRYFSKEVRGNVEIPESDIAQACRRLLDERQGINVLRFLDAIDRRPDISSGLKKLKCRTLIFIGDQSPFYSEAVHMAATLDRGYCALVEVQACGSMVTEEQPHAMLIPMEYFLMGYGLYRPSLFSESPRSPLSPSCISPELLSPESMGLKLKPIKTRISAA
Nature of the assay: two-hybrid; Gal4-based two-hybrid in yeast AH109; NDL1 with Gal4 DNA-binding domain (pAS-attR), partner with Gal4 activation domain (pACTGW-attR); double transformants on SD/-Leu/-Trp; colony-lift filter beta-galactosidase assay with X-gal, 14-16 h at 30 °C, blue colonies scored positive; NDL1 alone as negative control.

Results are given in words; binding and its absence hold for the method and conditions named. Some binding calls cover weakened binding; strength is not graded here. Sequences can lack the tags named with a protein.

B1: IDH-V (protein, UniProt Q945K7 1-374)
chain: MTMAANLARRLIGNRSTQILGAVNSSSGAASSVARAFCSSTTPITATLFPGDGIGPEIAESVKKVFTTAGVPIEWEEHYVGTEIDPRTQSFLTWESLESVRRNKVGLKGPMATPIGKGHRSLNLTLRKELNLYANVRPCYSLPGYKTRYDDVDLITIRENTEGEYSGLEHQVVRGVVESLKIITRQASLRVAEYAFLYAKTHGRERVSAIHKANIMQKTDGLFLKCCREVAEKYPEITYEEVVIDNCCMMLVKNPALFDVLVMPNLYGDIISDLCAGLVGGLGLTPSCNIGEDGVALAEAVHGSAPDIAGKNLANPTALLLSGVMMLRHLKFNEQAEQIHSAIINTIAEGKYRTADLGGSSTTTEFTKAICDHL
In the case of B1, the binding entry is listed as “binds”.

B2: ANNAT1 (protein, UniProt Q9SYT0 1-317)
chain: MATLKVSDSVPAPSDDAEQLRTAFEGWGTNEDLIISILAHRSAEQRKVIRQAYHETYGEDLLKTLDKELSNDFERAILLWTLEPGERDALLANEATKRWTSSNQVLMEVACTRTSTQLLHARQAYHARYKKSLEEDVAHHTTGDFRKLLVSLVTSYRYEGDEVNMTLAKQEAKLVHEKIKDKHYNDEDVIRILSTRSKAQINATFNRYQDDHGEEILKSLEEGDDDDKFLALLRSTIQCLTRPELYFVDVLRSAINKTGTDEGALTRIVTTRAEIDLKVIGEEYQRRNSIPLEKAITKDTRGDYEKMLVALLGEDDA
For the molecule B2, the binding entry is reported as “binds”.

Source of the values: paper PMC8472134.
